From publication doi:10.1101/759712 come the findings set out here.

No constants are given. Whether binding was seen depends on the method and setting. Some results given as binding are weak or reduced against the parent protein; the word gives no strength.

This assay deals with T1, SINE2 (SUN domain-interacting NE protein 2) (Arabidopsis thaliana) (UniProt Q9SQR5).
T1 sequence: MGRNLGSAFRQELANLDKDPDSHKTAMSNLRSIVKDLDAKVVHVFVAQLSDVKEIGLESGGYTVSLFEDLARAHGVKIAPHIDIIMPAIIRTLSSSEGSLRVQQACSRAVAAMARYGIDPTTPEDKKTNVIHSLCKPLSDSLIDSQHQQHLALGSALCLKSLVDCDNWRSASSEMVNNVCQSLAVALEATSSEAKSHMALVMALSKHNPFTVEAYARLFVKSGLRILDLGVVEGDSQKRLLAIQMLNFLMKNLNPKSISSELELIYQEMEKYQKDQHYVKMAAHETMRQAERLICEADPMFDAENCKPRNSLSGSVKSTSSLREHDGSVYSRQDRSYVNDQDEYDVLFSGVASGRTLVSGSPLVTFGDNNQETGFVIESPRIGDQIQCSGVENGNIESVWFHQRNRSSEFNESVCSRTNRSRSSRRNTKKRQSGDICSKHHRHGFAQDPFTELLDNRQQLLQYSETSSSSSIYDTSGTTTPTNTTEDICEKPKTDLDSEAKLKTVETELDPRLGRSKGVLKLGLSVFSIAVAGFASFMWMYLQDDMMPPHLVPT
In words: two-hybrid.

B1: SINE1 (SUN domain-interacting NE protein 1) (protein, UniProt Q5XVI1 1-560)
chain: MGLNLNPILRQELANLDKDTESRKSAMKALKSYVKDLDSKAIPGFLAQVFETKETNSLSGEYTISLYEILARVHGPNIVPQIDTIMSTIVKTLASSAGSFPLQQACSKVIPAIARYGIDPTTTEDKKRVIIHSLCKPLTDSLLASQESLTSGAALCLKALVDSDNWRFASDEMVNRVCQNVVVALDSNSNQTHLQMGLVMSLAKHNPLIVEAYARLLIHTGLRILGFGVSEGNSQKRLSAVQMLNFLMKCLDPRSIYSEVELIIKEMERCQSDQMAYVRGAAYEAMMTSKRIAAELESKMEKGCRSVTGSNFSRRNCSSIVPDYSLSPESQTLGSFSGYDSPVESSPISHTSCNSEFDRRSVNRKLWRRDENGGVVDISLKDGLFSRVTKGSTTVSDSPLVPYDTCENGDEFEGFLMESLRNTTPSPQRQRSRRINAEDFNIFSTPRKLISSLQYPDDVDLDHSDIQSPILRGEREKTIGSRKNPKLRKQFPTMVETMSSTITVSEDTAQTQMITGKKKKKKMSYAKLVIAISFVVVALFATVILMVNQDDDVGYYTVPT
For the molecule B1, the binding entry is “binds”.

B2: SINE2 (SUN domain-interacting NE protein 2) (protein, UniProt Q9SQR5 1-554)
chain: T1 sequence
For B2, the binding entry is “binds weakly”.
